Assay results from patent publication US20170306037A1.
Results are given in words; binding and its absence hold for the method and conditions named. Some binding calls cover weakened binding; strength is not graded here.

T1: human GITR (hGITR), form not stated (human) (UniProt Q9Y5U5)
T1 sequence: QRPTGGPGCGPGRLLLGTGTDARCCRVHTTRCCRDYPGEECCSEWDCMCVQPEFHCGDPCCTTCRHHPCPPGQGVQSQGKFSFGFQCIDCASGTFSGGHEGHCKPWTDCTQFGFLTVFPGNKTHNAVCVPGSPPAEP

B1: MAB1 (murine monoclonal GITR agonist antibody) (antibody, V domains shown)
VH: QVQLKESGPGLVAPSQSLSITCTVSGFSLRSYGVDWVRQPPGKGLEWLGVIWGGGGTNYNSALMAKLSISKDKSKSQVFLKMNSLQTDDTAMYYCAKHAYGHDGGFAMDYWGQGTSVTVSS
VL: NIVMTQSPKSMSMSVGERVTLSCKASENVDTFVSWYQQKPDHSPKLLIYGASNRYTGVPDRFTGSGSATDFTLTISSVQAEDLADYHCGQSYSYPFTFGSGTKLEIK
B2: MAB3 (IgG1 kappa) (antibody, V domains shown)
VH: QVQLVESGGGLVQPGGSLRLSCAASGFSLSSYGVDWVRQAPGKGLEWLGVIWGGGGTYYTASLMGRFTISRDNSKNTLYLQMNSLRAEDTAVYYCAKHAYGHDGGFAMDYWGQGTLVTVSS
VL: EIVMTQSPATLSVSPGERATLSCRASQSVSSNLAWYQQKPGQAPRLLIYGASNRATGIPDRFSGSGSGTDFTLTISRLEPEDFAVYYCGQSYSYPFTFGQGTKLEIKR

Columns and labels:
[1] = biological target: T1, human GITR (hGITR), form not stated (human); assay: sandwich ELISA against hGITR
[2] = biological target: T1, human GITR (hGITR), form not stated (human); assay: ELISA on a panel of human TNFRs

Binder | binding [1] | binding [2]
B1 | binds | 
B2 |  | binds
